Source: patent publication US20230002496A1 (STAIDSON BEIJING BIOPHARMACEUTICALS, published 2023)
Numbering of substitutions follows the chain as printed. These are yes or no findings as the source states them, for the method shown. Some results given as binding are weak or reduced against the parent protein; the word gives no strength. For part of these data: Sequences can lack the tags named with a protein.

T1: Bavih-GMRa (biotinylated Avi-10His-GMRa(ECD)) (human) (UniProt P15509)
T1 sequence (chain, biotin on the Avi tag (BirA ligase)): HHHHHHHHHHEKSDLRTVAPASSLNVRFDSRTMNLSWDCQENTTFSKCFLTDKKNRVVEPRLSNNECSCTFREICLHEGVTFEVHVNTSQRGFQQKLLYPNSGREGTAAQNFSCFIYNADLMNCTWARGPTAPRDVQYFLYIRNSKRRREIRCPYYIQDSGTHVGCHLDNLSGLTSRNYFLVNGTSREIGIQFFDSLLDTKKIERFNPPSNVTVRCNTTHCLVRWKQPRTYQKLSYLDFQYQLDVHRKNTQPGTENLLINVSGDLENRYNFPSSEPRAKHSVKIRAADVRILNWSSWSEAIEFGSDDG

T2: human GM-CSFRα-6His (human, UniProt P15509 23-320)
T2 construct: pTT5-GMRa-6his (ECD), made in 293F cells; also called GMRah; GMRa-6his(ECD)
T2 sequence: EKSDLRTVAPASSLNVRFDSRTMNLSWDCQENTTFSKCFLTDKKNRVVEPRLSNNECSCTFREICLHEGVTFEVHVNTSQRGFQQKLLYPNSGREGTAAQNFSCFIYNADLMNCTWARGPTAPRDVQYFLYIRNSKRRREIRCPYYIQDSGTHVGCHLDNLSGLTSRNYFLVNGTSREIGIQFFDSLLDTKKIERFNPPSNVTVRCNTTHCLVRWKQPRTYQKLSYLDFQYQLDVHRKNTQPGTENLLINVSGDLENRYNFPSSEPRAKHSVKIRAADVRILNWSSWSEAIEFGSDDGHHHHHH

B1: E88-IgG4 (antibody, V domains shown)
VH: QMQLVQSGAEVKKPGASVKVSCKVSGHTLTELSMHWVRQAPGKGLEWMGGFDPEDGETIYAQKFQGRVTMTGDTSTDTAYLELSSLRSEDTALYYCATGRYCHKDGCYGFDYWGQGTLVTVSS
VL: EIVMTQSPATLSLSPGERATLSCRASQSVSSYLAWYQQKPGQAPRLLIYGASSRATGIPDRFSGSGSGTDFTLTISRLEPEDFAVYYCQQYDSSPHTFGQGTKLEIK
B2: E61-IgG4 (antibody, V domains shown)
VH: B1 VH with H27Y, C102A, H103W, K104T, G106I, C107A
VL: B1 VL with S93N, H96S
B3: E39-IgG4 (antibody, V domains shown)
VH: B1 VH with M34I, H103S, K104S, G106L
VL: B1 VL with S93N
B4: E108-IgG4 (antibody, V domains shown)
VH: B1 VH with M34I, C102T, H103E, K104L, D105Y, G106Q, C107N
VL: B1 VL with D92N, S93N, S94W, H96P
B5: T119-IgG4 (antibody, V domains shown)
VH: B1 VH with M34I, I59N, F64S, H103S, K104T, G106T
VL: B1 VL with D92N, S93N, S94W, H96P
notes: human IgG4, human kappa; parent antibody
B6: E35-IgG4 (antibody, V domains shown)
VH: B1 VH with H27Y, M34I, C102T, H103S, K104L, D105A, G106T, C107T
VL: B1 VL with S93N, S94W, H96Y
notes: human IgG4, human kappa; also called E35-IG4
B7: E87-IgG4 (antibody, V domains shown)
VH: B1 VH with H27Y, M34I, F64S, C102V, H103S, K104L, D105F, G106F, C107N
VL: B1 VL with D92N, S93N, S94W, H96P
notes: human IgG4, human kappa
B8: E200a-IgG4 (antibody, V domains shown)
VH: B1 VH with H27Y, S33P, C102T, H103I, K104I, D105T, G106T, C107N
VL: B1 VL with S93N, S94W, H96P
notes: human IgG4, human kappa
B9: EII81 (antibody, IgG1, V domains shown)
VH: B1 VH with H27Y, M34I, C102T, H103S, K104L, D105A, G106A, C107T
VL: B1 VL with D92T, S93N, S94V, H96D
B10: E36-IgG1 (antibody, V domains shown)
VH: B1 VH with C102A, H103F, K104I, G106T, C107A
VL: B1 VL with D92S, S93N, H96P

Molecular target: T1, Bavih-GMRa (biotinylated Avi-10His-GMRa(ECD)) (human)
Test: competitive ELISA as in Example 1: GM-CSF coated, biotinylated GM-CSFRα in solution, antibody (human IgG4) titrated; blocked ligand GM-CSF; x axis numbered 0-4 without label or unit

Row | binding | Binder
1 | binds | B1
2 | binds | B2
3 | binds | B3
4 | binds | B4
5 | binds | B5

Molecular target: cynomolgus monkey GM-CSFRα-6His (cynomolgus monkey)
Test: ELISA, IgG4 on mGMRah

Row | binding | Binder
6 | binds | B6
7 | binds | B7
8 | binds | B4
9 | binds | B5
10 | binds | B8

Molecular target: T2, human GM-CSFRα-6His
Test: ELISA on human GM-CSFRα, antibodies as human IgG1; x axis 'Log Ab concentration', no unit

Row | binding | Binder
11 | binds | B9
12 | binds | B10

Molecular target: T1, Bavih-GMRa (biotinylated Avi-10His-GMRa(ECD)) (human)
Test: competitive ELISA as in Example 1: GM-CSF coated, biotinylated GM-CSFRα in solution, antibody (human IgG4) titrated; blocked ligand GM-CSF; x axis 'Log Ab concentration', no unit

Row | binding | Binder
13 | binds | B6
14 | binds | B7
15 | binds | B5

Molecular target: cynomolgus monkey GM-CSFRα-6His (cynomolgus monkey)
Test: ELISA on cynomolgus monkey GM-CSFRα (mGMRah), antibodies as human IgG4; x axis 'Log Ab concentration', no unit

Row | binding | Binder
16 | binds | B6
17 | binds | B7
18 | binds | B4
19 | binds | B5
20 | binds | B8

Molecular target: T2, human GM-CSFRα-6His
Test: ELISA, IgG1 on human GM-CSFRα

Row | binding | Binder
21 | binds | B10
